# Experimental data: patent US8187821B2, “Compositions and methods for the modulation of PGRMC1” (University of Utah Research Foundation, priority 2008, dated 2012)
# Some entries share one result that the patent states for a list of compounds.
# Test: PGRMC1 binding assay control: non-specific [^3H] ligand association with membranes from untransformed bacteria (−PGRMC1)
# Set-up: species or system E. coli
# Conditions: first category of sites, present in both +PGRMC1 and −PGRMC1 membranes
# Procedure: IPTG-induced cells were harvested by centrifugation (5,000 rpm; 5 min) and washed with ice-cold H2O. The pellet was resuspended in 5 mL buffer A (50 mM Tris-HCl pH 7.5, 150 mM NaCl, 0.1% NP40, and 10% glycerol) with 5-10 mg lysozyme, and incubated on ice for 30 min. The cells were then disrupted by three bursts of sonication (45 sec) at high intensity with a 45 sec cooling period between bursts. […] Total protein in the His10-PGRMC1 (His10 disclosed as SEQ ID NO: 14) transformed and untransformed purified membranes was determined by the Bradford method and membranes were normalized to 10 μg/μL total protein (diluted with buffer A). […]
# The standard 10 μL binding reaction contained 10 μp purified membranes (total protein) and 10 μM [^3H] progesterone or [^3H] cholesterol (3,000-5,000 cpm) in buffer A: 20% ethanol. […] The fractions were then counted in a multi-well scintillation counter (Wallac Microbeta Triluxmax, Waltham, Mass.) for 30 seconds each. […]
# In order to better understand PGRMC1's biological function and to study ligand binding, an in vitro binding assay was developed. […] The membranes were spun out, washed, and counted in a scintillation counter. […]
smiles,measurement,value
"CC(C)CCC[C@@H](C)[C@H]1CC[C@H]2[C@@H]3CC=C4C[C@@H](O)CC[C@]4(C)[C@H]3CC[C@]12C [Cholesterol, cholesterol]",non-specific binding sites per reaction,8−9×10^9 binding sites per reaction
"CC(=O)[C@H]1CC[C@H]2[C@@H]3CCC4=CC(=O)CC[C@]4(C)[C@H]3CC[C@]12C [Progesterone, progesterone]",non-specific binding sites per reaction,8−9×10^9 binding sites per reaction
